# Values from PubChem BioAssay AID504774 (Drosophila RNAi Screening Center, 2011)
# Screen: 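Fly genes whose loss alters survival after alkylation damage to DNA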 (primary screen)
# Cell system: Drosophila Kc167 cells
# Reagents: long dsRNA against Drosophila genes, about 0.25 µg dsRNA per well
# Timing: about 6 days: 3 days knock-down, then 3 days with or without MMS
# Treatment: methyl methanesulphonate 0.004% (w/v) for 3 days after knock-down
# Measurement: 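ATP-dependent luminescence as a measure of live cells in MMS-exposed wells, quantile normalised within each plate, with replicate values also given as a mean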
# Direction: mean viability with MMS: higher = more surviving cells after MMS
# The deposit covers about 23,000 reagents; this is a random part of those with a known target gene and a result. 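Values are quantile-normalised luminescence on an arbitrary scale; higher means more cells surviving MMS.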 Names joined by + are all predicted targets of the reagent. Further read-outs or replicates are left out here.
Gene,DRSC id,mean viability with MMS
pain (GeneID 37985),DRSC04273,3.21e6
CG6409 (GeneID 39220),DRSC10630,3.72e6
CG6409 (GeneID 39220),DRSC22330,3.48e6
ND-MLRQ (GeneID 317928),DRSC11913,3.47e6
vlc (GeneID 46078),DRSC04922,3.50e6
CG30323 (GeneID 246539),DRSC07656,3.53e6
CG30016 (GeneID 246393),DRSC05242,3.54e6
Rpt5 (GeneID 42805),DRSC16842,2.86e6
ZnT49B (GeneID 36393),DRSC07225,3.45e6
CG9632 (GeneID 41926),DRSC16528,3.43e6
CG13566 (GeneID 37813),DRSC04203,3.49e6
Acp98AB (retired record) (GeneID 44933),DRSC21837,3.48e6
CG8757 (GeneID 39528),DRSC11039,3.42e6
hid (GeneID 40009),DRSC11316,3.55e6
dgt3 (GeneID 37377),DRSC04349,3.52e6
B9d1 (GeneID 41888),DRSC14993,3.58e6
msb1l (GeneID 35254),DRSC03572,3.61e6
CG3092 (GeneID 37682),DRSC04336,3.73e6
Sgs7 (GeneID 47198),DRSC11281,3.48e6
CG8100 (GeneID 39565),DRSC10961,3.51e6
CG11737 (GeneID 41009),DRSC14364,3.58e6
unc-13 (GeneID 43841),DRSC17192,3.48e6
unc-13 (GeneID 43841),DRSC17193,3.54e6
unc-13 (GeneID 43841),DRSC17223,3.60e6
CG32590 (GeneID 318103),DRSC19594,3.55e6
GLS (GeneID 36396),DRSC07261,3.47e6
udd (GeneID 35781),DRSC06720,3.60e6
Gga (GeneID 31902),DRSC18260,3.51e6
Best2 (GeneID 38727),DRSC09712,3.51e6
Mal-A1 (GeneID 35824),DRSC07461,3.57e6

Next part; the last 5 above are carried over.
Gene,DRSC id,mean viability with MMS
GLS (GeneID 36396),DRSC07261,3.47e6
udd (GeneID 35781),DRSC06720,3.60e6
Gga (GeneID 31902),DRSC18260,3.51e6
Best2 (GeneID 38727),DRSC09712,3.51e6
Mal-A1 (GeneID 35824),DRSC07461,3.57e6
CG8673 (GeneID 34105),DRSC03105,3.71e6
hd (GeneID 40642),DRSC12316,3.49e6
Elovl7 (GeneID 40943),DRSC15452,3.57e6
Elovl7 (GeneID 40943),DRSC21570,3.33e6
ProtB (GeneID 34867),DRSC03373,3.50e6
CG11089 + CG31381,DRSC13690,3.62e6
CG11089 + CG31381,DRSC14290,3.64e6
Scsalpha1 (GeneID 38447),DRSC08698,3.47e6
Argl + CG9515,DRSC03243,3.59e6
Argl + CG9515,DRSC03245,3.64e6
CG17030 (GeneID 38591),DRSC08503,3.60e6
Cpr49Aa (GeneID 246413),DRSC07197,3.60e6
salr (GeneID 34568),DRSC03607,3.40e6
cue (GeneID 38174),DRSC08248,3.51e6
Set (GeneID 41844),DRSC16861,3.52e6
Prosalpha1R + Prosalpha1,DRSC07515,3.29e6
